Some peptides are written in HELM: one residue between dots, names in brackets for other building blocks, links after the first $.

Consider 3 substances from US5521159A (Italfarmaco S.p.A., priority 1992, dated 1996).

A short description of this series: general procedure: solution-phase peptide synthesis; DCC/HOSu; DCCI/HOBT.

For the substance PEPTIDE1{[gGly-(R,S)mLys].P.R}$$$$V2.0, the step yield (late stage modification step) came out at 32%. For the same substance, under “late stage modification step, HPLC (220-254 nm)”, the “final HPLC purity” value is 96%+isomero A.

With [mLys(Z)-Gly-NH2]-Pro-Arg-OH isomer B, under “coupling step, 220 nm”, the “final HPLC purity” value is given as 93%+4% of isomer A.

With [mLys(Z)-Gly-NH2]-Pro-Arg-OH isomer A, the “final HPLC purity” value (coupling step, 220 nm) came to 96%.
